Results: article PMC11221361
These are yes or no findings as the source states them, for the method shown. Binding seen in cells or lysates may run through a third protein. Some entries that bind do so weakly or less than the wild type. Sequences can lack the tags named with a protein.

Protein sequences, listed by entry. Tags and fused reporters are not part of them.
UniProt P36012: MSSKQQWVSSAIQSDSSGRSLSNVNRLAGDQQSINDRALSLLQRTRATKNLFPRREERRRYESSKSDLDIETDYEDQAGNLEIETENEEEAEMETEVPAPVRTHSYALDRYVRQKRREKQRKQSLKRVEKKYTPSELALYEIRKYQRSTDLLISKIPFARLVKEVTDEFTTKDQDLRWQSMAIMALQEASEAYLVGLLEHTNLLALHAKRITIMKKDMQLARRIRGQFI

T1: 9xmyc-tagged Kre6 (S. cerevisiae) (UniProt P32486)
T1 sequence: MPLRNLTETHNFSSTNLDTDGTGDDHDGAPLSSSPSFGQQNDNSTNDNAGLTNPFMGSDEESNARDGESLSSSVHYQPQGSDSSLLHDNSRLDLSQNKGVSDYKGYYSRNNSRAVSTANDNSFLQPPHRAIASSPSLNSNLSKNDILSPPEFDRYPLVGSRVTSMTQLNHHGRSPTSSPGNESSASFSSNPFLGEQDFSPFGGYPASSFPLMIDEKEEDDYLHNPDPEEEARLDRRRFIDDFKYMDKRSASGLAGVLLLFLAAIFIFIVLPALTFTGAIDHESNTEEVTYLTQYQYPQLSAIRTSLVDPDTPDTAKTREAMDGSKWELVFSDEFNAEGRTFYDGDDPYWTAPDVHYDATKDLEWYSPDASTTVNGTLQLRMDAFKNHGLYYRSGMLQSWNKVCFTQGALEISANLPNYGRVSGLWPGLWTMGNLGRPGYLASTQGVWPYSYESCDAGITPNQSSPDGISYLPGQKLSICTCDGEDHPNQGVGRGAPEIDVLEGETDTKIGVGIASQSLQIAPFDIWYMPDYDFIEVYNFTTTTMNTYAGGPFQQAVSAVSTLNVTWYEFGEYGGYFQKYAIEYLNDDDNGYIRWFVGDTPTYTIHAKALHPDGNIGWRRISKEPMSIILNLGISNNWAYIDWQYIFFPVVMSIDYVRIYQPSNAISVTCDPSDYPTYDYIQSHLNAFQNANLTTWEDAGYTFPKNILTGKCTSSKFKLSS


Columns and labels:
[1] = target: T1, 9xmyc-tagged Kre6 (S. cerevisiae); assay: co-IP; myc-tagged Kre6 or Okp1 precipitated from yeast whole-cell lysate with anti-myc overnight, then Protein G dynabeads for 2 h at 4°C; same IP lysis buffer; washed 3 times; Western blot for 3xHA-Cse4
[2] = target: 3xHA-tagged Cse4^CENP-A (S. cerevisiae) (UniProt P36012); assay: co-IP; HA-tagged Cse4 precipitated from yeast whole-cell lysate with anti-HA agarose overnight; IP lysis buffer 50 mM HEPES, 200 mM sodium acetate, 0.25% NP-40, 1 mM EDTA, 5 mM magnesium acetate, 5% glycerol, 3 mM DTT; washed 3 times; Western blot with anti-myc and anti-HA

| binding [1] | binding [2] | Molecule |
| --- | --- | --- |
| binds |  | 3xHA-tagged Cse4^CENP-A (from UniProt P36012 1-229) |
|  | binds | 9xmyc-tagged Kre6 (protein, UniProt P32486 1-720) MPLRNLTETHNFSSTNLDTDGTGDDHDGAPLSSSPSFGQQNDNSTNDNAGLTNPFMGSDEESNARDGESLSSSVHYQPQGSDSSLLHDNSRLDLSQNKGVSDYKGYYSRNNSRAVSTANDNSFLQPPHRAIASSPSLNSNLSKNDILSPPEFDRYPLVGSRVTSMTQLNHHGRSPTSSPGNESSASFSSNPFLGEQDFSPFGGYPASSFPLMIDEKEEDDYLHNPDPEEEARLDRRRFIDDFKYMDKRSASGLAGVLLLFLAAIFIFIVLPALTFTGAIDHESNTEEVTYLTQYQYPQLSAIRTSLVDPDTPDTAKTREAMDGSKWELVFSDEFNAEGRTFYDGDDPYWTAPDVHYDATKDLEWYSPDASTTVNGTLQLRMDAFKNHGLYYRSGMLQSWNKVCFTQGALEISANLPNYGRVSGLWPGLWTMGNLGRPGYLASTQGVWPYSYESCDAGITPNQSSPDGISYLPGQKLSICTCDGEDHPNQGVGRGAPEIDVLEGETDTKIGVGIASQSLQIAPFDIWYMPDYDFIEVYNFTTTTMNTYAGGPFQQAVSAVSTLNVTWYEFGEYGGYFQKYAIEYLNDDDNGYIRWFVGDTPTYTIHAKALHPDGNIGWRRISKEPMSIILNLGISNNWAYIDWQYIFFPVVMSIDYVRIYQPSNAISVTCDPSDYPTYDYIQSHLNAFQNANLTTWEDAGYTFPKNILTGKCTSSKFKLSS |
